Consider two molecules from paper PMC8284019.

Amino acid sequences for entries named in this document (tags omitted).
UniProt O95076: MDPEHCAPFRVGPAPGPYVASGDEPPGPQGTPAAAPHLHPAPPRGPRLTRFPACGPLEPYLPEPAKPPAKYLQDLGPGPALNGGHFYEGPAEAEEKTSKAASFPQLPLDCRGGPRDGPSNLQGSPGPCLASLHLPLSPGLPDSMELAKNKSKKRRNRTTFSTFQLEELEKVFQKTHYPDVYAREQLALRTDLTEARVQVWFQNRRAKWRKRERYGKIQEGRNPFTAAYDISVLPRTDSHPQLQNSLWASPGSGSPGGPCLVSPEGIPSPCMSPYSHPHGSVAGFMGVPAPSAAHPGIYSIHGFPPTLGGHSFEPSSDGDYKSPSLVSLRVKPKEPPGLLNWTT

No constants are given. Whether binding was seen depends on the method and setting. In cells and extracts the contact can be indirect. Some results given as binding are weak or reduced against the parent protein; the word gives no strength.

The target in assay [1] is T1, lysine demethylase 2B (human) (UniProt Q8NHM5).
T1 sequence: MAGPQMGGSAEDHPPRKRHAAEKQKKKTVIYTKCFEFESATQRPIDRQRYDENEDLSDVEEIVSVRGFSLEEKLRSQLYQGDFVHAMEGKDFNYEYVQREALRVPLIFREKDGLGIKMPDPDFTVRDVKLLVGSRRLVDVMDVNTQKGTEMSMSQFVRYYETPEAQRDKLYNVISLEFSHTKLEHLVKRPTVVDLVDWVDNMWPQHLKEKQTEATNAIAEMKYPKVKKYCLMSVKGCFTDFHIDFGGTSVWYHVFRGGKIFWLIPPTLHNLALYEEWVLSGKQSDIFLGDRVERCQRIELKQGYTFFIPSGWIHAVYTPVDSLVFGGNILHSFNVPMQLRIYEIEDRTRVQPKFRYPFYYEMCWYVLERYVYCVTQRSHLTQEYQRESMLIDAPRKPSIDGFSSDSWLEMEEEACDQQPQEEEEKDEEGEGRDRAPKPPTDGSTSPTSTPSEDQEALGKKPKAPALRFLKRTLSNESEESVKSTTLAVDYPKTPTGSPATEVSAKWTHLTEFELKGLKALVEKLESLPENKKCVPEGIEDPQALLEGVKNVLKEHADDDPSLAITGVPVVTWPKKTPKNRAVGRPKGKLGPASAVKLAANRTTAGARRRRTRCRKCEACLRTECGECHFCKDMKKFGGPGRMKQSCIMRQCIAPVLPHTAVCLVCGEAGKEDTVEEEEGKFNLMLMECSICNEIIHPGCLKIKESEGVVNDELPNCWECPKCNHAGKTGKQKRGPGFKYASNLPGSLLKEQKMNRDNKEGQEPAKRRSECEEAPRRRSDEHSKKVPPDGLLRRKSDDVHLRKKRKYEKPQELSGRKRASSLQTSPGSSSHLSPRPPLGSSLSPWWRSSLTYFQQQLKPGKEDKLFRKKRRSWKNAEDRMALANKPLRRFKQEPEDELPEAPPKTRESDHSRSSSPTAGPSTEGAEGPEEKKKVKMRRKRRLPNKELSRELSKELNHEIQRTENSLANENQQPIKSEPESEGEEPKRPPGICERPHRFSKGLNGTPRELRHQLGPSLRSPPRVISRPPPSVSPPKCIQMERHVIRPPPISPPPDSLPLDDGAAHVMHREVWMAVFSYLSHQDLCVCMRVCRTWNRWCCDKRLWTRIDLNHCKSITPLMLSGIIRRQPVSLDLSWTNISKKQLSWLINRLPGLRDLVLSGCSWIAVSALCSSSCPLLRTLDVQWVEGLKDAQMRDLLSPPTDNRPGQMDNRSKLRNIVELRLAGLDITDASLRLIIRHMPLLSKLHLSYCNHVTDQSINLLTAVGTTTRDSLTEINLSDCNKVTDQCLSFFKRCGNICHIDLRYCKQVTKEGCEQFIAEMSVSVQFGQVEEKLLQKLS
Briefly: co-IP; C33A or ME180 cells transfected with expression vector of ALX3 or KDM2B, 48 h, lysed in RIPA buffer; IP with Protein G plus-Agarose and anti-Flag Affinity Gel; ALX3 and KDM2B in the precipitates detected by western blot.

The target of assay [2] is ALX3 (human) (UniProt O95076). The assay is described as above.

In the case of ALX3 (from UniProt O95076 1-343), the binding result in assay [1] was “binds”.

B1: lysine demethylase 2B (protein, UniProt Q8NHM5 1-1336)
chain: MAGPQMGGSAEDHPPRKRHAAEKQKKKTVIYTKCFEFESATQRPIDRQRYDENEDLSDVEEIVSVRGFSLEEKLRSQLYQGDFVHAMEGKDFNYEYVQREALRVPLIFREKDGLGIKMPDPDFTVRDVKLLVGSRRLVDVMDVNTQKGTEMSMSQFVRYYETPEAQRDKLYNVISLEFSHTKLEHLVKRPTVVDLVDWVDNMWPQHLKEKQTEATNAIAEMKYPKVKKYCLMSVKGCFTDFHIDFGGTSVWYHVFRGGKIFWLIPPTLHNLALYEEWVLSGKQSDIFLGDRVERCQRIELKQGYTFFIPSGWIHAVYTPVDSLVFGGNILHSFNVPMQLRIYEIEDRTRVQPKFRYPFYYEMCWYVLERYVYCVTQRSHLTQEYQRESMLIDAPRKPSIDGFSSDSWLEMEEEACDQQPQEEEEKDEEGEGRDRAPKPPTDGSTSPTSTPSEDQEALGKKPKAPALRFLKRTLSNESEESVKSTTLAVDYPKTPTGSPATEVSAKWTHLTEFELKGLKALVEKLESLPENKKCVPEGIEDPQALLEGVKNVLKEHADDDPSLAITGVPVVTWPKKTPKNRAVGRPKGKLGPASAVKLAANRTTAGARRRRTRCRKCEACLRTECGECHFCKDMKKFGGPGRMKQSCIMRQCIAPVLPHTAVCLVCGEAGKEDTVEEEEGKFNLMLMECSICNEIIHPGCLKIKESEGVVNDELPNCWECPKCNHAGKTGKQKRGPGFKYASNLPGSLLKEQKMNRDNKEGQEPAKRRSECEEAPRRRSDEHSKKVPPDGLLRRKSDDVHLRKKRKYEKPQELSGRKRASSLQTSPGSSSHLSPRPPLGSSLSPWWRSSLTYFQQQLKPGKEDKLFRKKRRSWKNAEDRMALANKPLRRFKQEPEDELPEAPPKTRESDHSRSSSPTAGPSTEGAEGPEEKKKVKMRRKRRLPNKELSRELSKELNHEIQRTENSLANENQQPIKSEPESEGEEPKRPPGICERPHRFSKGLNGTPRELRHQLGPSLRSPPRVISRPPPSVSPPKCIQMERHVIRPPPISPPPDSLPLDDGAAHVMHREVWMAVFSYLSHQDLCVCMRVCRTWNRWCCDKRLWTRIDLNHCKSITPLMLSGIIRRQPVSLDLSWTNISKKQLSWLINRLPGLRDLVLSGCSWIAVSALCSSSCPLLRTLDVQWVEGLKDAQMRDLLSPPTDNRPGQMDNRSKLRNIVELRLAGLDITDASLRLIIRHMPLLSKLHLSYCNHVTDQSINLLTAVGTTTRDSLTEINLSDCNKVTDQCLSFFKRCGNICHIDLRYCKQVTKEGCEQFIAEMSVSVQFGQVEEKLLQKLS
With B1, the binding entry in assay [2] was “binds”.
